{
  "source": "paper doi:10.1101/2020.09.22.309260",
  "note": "These are yes or no findings as the source states them, for the method shown. Binding seen in cells or lysates may run through a third protein. Binding can be weak; no strength is given.",
  "data": [
    {"target": "FvFlbA1-NLuc (Fusarium verticillioides) (UniProt W7MNW1)", "test": "split reporter", "values": [
      {"substance": "CLuc-FvFlbA2 (from UniProt W7MCR6)", "binding": "binds"},
      {"substance": "FvTlg2 (CLuc fusion) (from UniProt W7M6E7)", "binding": "binds weakly"},
      {"substance": "FvRab5 (CLuc fusion) (from UniProt W7LVC9)", "binding": "binds"},
      {"substance": "FvRab7 (CLuc fusion) (from UniProt W7MEQ4)", "binding": "binds"},
      {"substance": "FvPep12 (CLuc fusion) (from UniProt W7MPJ7)", "binding": "binds weakly"},
      {"substance": "FvVps36 (CLuc fusion) (from UniProt W7M1I4)", "binding": "binds weakly"}
    ]}
  ]
}
